Measurements reported in US20210363254A1, “PHARMACEUTICAL COMBINATIONS” (Novartis AG, priority 2018, published 2021).
Results are given in words; binding and its absence hold for the method and conditions named. Some results given as binding are weak or reduced against the parent protein; the word gives no strength.

Amino acid sequences for entries named in this document (tags omitted). Residues count along the entry.
UniProt Q15116, residues 25-288: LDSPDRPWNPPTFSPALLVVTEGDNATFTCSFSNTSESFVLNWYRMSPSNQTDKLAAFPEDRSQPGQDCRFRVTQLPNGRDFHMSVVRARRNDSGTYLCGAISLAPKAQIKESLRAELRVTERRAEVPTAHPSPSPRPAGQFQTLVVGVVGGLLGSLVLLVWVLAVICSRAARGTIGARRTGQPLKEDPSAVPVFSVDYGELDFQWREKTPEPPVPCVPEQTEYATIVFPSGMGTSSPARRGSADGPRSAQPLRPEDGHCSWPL

Tests used:
[1] = target: Programmed Death 1 (PD-1) (UniProt Q15116); assay: FACS binding at 200, 100, 50, 25 and 12.5 ng/ml; legend paragraph 49 names neither cells nor antigen; PD-1 taken as target because the clones are the filing's anti-PD-1 antibodies
[2] = target: Programmed Death 1 (PD-1) (UniProt Q15116); assay: FACS competition on PD-1-expressing 300.19 cells; constant Alexa 488-labeled murine mAb BAP049, serial dilutions of test mAb; x axis is the ratio conc. test mAb / conc. labelled murine mAb; Experiment 2
[3] = target: Programmed Death 1 (PD-1) (UniProt Q15116); assay: FACS, blocking of PD-L2-Ig binding to PD-1, MFI of bound ligand against mAb concentration; cells not named
[4] = target: Programmed Death 1 (PD-1) (UniProt Q15116); assay: FACS, blocking of ligand-Ig binding to PD-1, MFI of bound ligand against mAb concentration; legend paragraph 53 names 'PD-LI-Ig and PD-L2-Ig' for FIG. 8A; cells not named
[5] = target: Programmed Death 1 (PD-1) (UniProt Q15116); assay: FACS competition: fluorescently labeled murine anti-PD-1 mAb BAP049 competed by unlabeled mAb, MFI against mAb concentration; first of two experiments; cells not named in legend paragraph 48
[6] = target: Programmed Death 1 (PD-1) (UniProt Q15116); assay: FACS competition: fluorescently labeled murine anti-PD-1 mAb BAP049 competed by unlabeled mAb, MFI against mAb concentration; second of two experiments; cells not named in legend paragraph 48

Measured: binding

B1: BAP049-hum04 (antibody, human IgG4 S228P, kappa, V domains shown)
VH: EVQLVQSGAEVKKPGESLRISCKGSGYTFTTYWMHWIRQSPSRGLEWLGNIYPGTGGSNFDEKFKNRFTISRDNSKNTLYLQMNSLRAEDTAVYYCTRWTTGTGAYWGQGTTVTVSS
VL: EIVLTQSPATLSLSPGERATLSCKSSQSLLDSGNQKNFLTWYQQKPGKAPKLLIYWASTRESGVPSRFSGSGSGTDFTFTISSLQPEDIATYYCQNDYSYPYTFGQGTKVEIKR
binds: [1] | [2]

B2: BAP049-hum16 (antibody, human IgG4 S228P, kappa, V domains shown)
VH: EVQLVQSGAEVKKPGESLRISCKGSGYTFTTYWMHWVRQAPGQGLEWMGNIYPGTGGSNFDEKFKNRFTISRDNSKNTLYLQMNSLRAEDTAVYYCTRWTTGTGAYWGQGTTVTVSS
VL: EIVLTQSPDFQSVTPKEKVTITCKSSQSLLDSGNQKNFLTWYQQKPGQAPRLLIYWASTRESGVPSRFSGSGSGTDFTFTISSLEAEDAATYYCQNDYSYPYTFGQGTKVEIKR
binds: [1] | [2]

B3: BAP049-hum02 (antibody, human IgG4 S228P, kappa, V domains shown)
VH: EVQLVQSGAEVKKPGESLRISCKGSGYTFTTYWMHWVRQATGQGLEWMGNIYPGTGGSNFDEKFKNRVTITADKSTSTAYMELSSLRSEDTAVYYCTRWTTGTGAYWGQGTTVTVSS
VL: DIQMTQSPSSLSASVGDRVTITCKSSQSLLDSGNQKNFLTWYQQKPGQAPRLLIYWASTRESGIPPRFSGSGYGTDFTLTINNIESEDAAYYFCQNDYSYPYTFGQGTKVEIKR
binds: [1] | [2]

B4: BAP049-hum03 (antibody, human IgG4 S228P, kappa, V domains shown)
VH: EVQLVQSGAEVKKPGESLRISCKGSGYTFTTYWMHWIRQSPSRGLEWLGNIYPGTGGSNFDEKFKNRFTISRDNSKNTLYLQMNSLRAEDTAVYYCTRWTTGTGAYWGQGTTVTVSS
VL: DIQMTQSPSSLSASVGDRVTITCKSSQSLLDSGNQKNFLTWYQQKPGQAPRLLIYWASTRESGIPPRFSGSGYGTDFTLTINNIESEDAAYYFCQNDYSYPYTFGQGTKVEIKR
binds: [1] | [2]

B5: BAP049-hum12 (antibody, human IgG4 S228P, kappa, V domains shown)
VH: EVQLVQSGAEVKKPGESLRISCKGSGYTFTTYWMHWVRQATGQGLEWMGNIYPGTGGSNFDEKFKNRVTITADKSTSTAYMELSSLRSEDTAVYYCTRWTTGTGAYWGQGTTVTVSS
VL: DIQMTQSPSSLSASVGDRVTITCKSSQSLLDSGNQKNFLTWYLQKPGQSPQLLIYWASTRESGVPSRFSGSGSGTDFTFTISSLEAEDAATYYCQNDYSYPYTFGQGTKVEIKR
binds: [1] | [2]

B6: BAP049-hum05 (antibody, human IgG4 S228P, kappa, V domains shown)
VH: EVQLVQSGAEVKKPGESLRISCKGSGYTFTTYWMHWVRQATGQGLEWMGNIYPGTGGSNFDEKFKNRVTITADKSTSTAYMELSSLRSEDTAVYYCTRWTTGTGAYWGQGTTVTVSS
VL: EIVLTQSPATLSLSPGERATLSCKSSQSLLDSGNQKNFLTWYQQKPGKAPKLLIYWASTRESGVPSRFSGSGSGTDFTFTISSLQPEDIATYYCQNDYSYPYTFGQGTKVEIKR
binds: [3] | [4] | [1] | [2]

B7: BAP049-hum01 (antibody, human IgG4 S228P, kappa, V domains shown)
VH: EVQLVQSGAEVKKPGESLRISCKGSGYTFTTYWMHWVRQATGQGLEWMGNIYPGTGGSNFDEKFKNRVTITADKSTSTAYMELSSLRSEDTAVYYCTRWTTGTGAYWGQGTTVTVSS
VL: EIVLTQSPATLSLSPGERATLSCKSSQSLLDSGNQKNFLTWYQQKPGQAPRLLIYWASTRESGVPSRFSGSGSGTEFTLTISSLQPDDFATYYCQNDYSYPYTFGQGTKVEIKR
binds: [3] | [4] | [1] | [2]

B8: Mu mAb (antibody, V domains shown)
VH: QVQLQQSGSELVRPGASVKLSCKASGYTFTTYWMHWVRQRPGQGLEWIGNIYPGTGGSNFDEKFKNRTSLTVDTSSTTAYMHLASLTSEDSAVYYCTRWTTGTGAYWGQGTLVTVSA
VL: DIVMTQSPSSLTVTAGEKVTMSCKSSQSLLDSGNQKNFLTWYQQKPGQPPKLLIFWASTRESGVPDRFTGSGSVTDFTLTISSVQAEDLAVYYCQNDYSYPCTFGGGTKLEIK
binds: [3] | [4] | [5] | [6] | [2]

B9: Chi mAb (Cys) (antibody, human IgG4 S228P, kappa, V domains shown)
VH: QVQLQQSGSELVRPGASVKLSCKASGYTFTTYWMHWVRQRPGQGLEWIGNIYPGTGGSNFDEKFKNRTSLTVDTSSTTAYMHLASLTSEDSAVYYCTRWTTGTGAYWGQGTTVTVSS
VL: DIVMTQSPSSLTVTAGEKVTMSCKSSQSLLDSGNQKNFLTWYQQKPGQPPKLLIFWASTRESGVPDRFTGSGSVTDFTLTISSVQAEDLAVYYCQNDYSYPCTFGQGTKVEIKR
binds: [5] | [6]

B10: Chi mAb (Tyr) (antibody, human IgG4 S228P, kappa, V domains shown)
VH: QVQLQQSGSELVRPGASVKLSCKASGYTFTTYWMHWVRQRPGQGLEWIGNIYPGTGGSNFDEKFKNRTSLTVDTSSTTAYMHLASLTSEDSAVYYCTRWTTGTGAYWGQGTTVTVSS
VL: DIVMTQSPSSLTVTAGEKVTMSCKSSQSLLDSGNQKNFLTWYQQKPGQPPKLLIFWASTRESGVPDRFTGSGSVTDFTLTISSVQAEDLAVYYCQNDYSYPYTFGQGTKVEIKR
binds: [3] | [4] | [5] | [6] | [2]
